We go through 49 molecules from publication PMC12040169 (PLOS Biology, 2025).

Some of the results follow.

The test system of the experiment is T1, CTL2-GFP (C. trachomatis L2/434/Bu, GFP-expressing).
T1 construct: L2/434/Bu, GFP-expressing
Set-up: species or system HeLa; Intracellular C. trachomatis growth in HeLa cells, bulk GFP fluorescence relative to DMSO. Conditions: bulk GFP, single well; 28.5 h, 10 µM; inhibitor.
On to `CCOc1ccc(Cl)cc1CN(C)C(=O)NC(c1ncnn1C)C(C)C` (stereo not shown) [CBK307110], for which the “% of control remaining” value is 155.08%. Take `COc1ccc(CCCNC(=N)N)cc1Cl` [CBK261404G]: the “% of control remaining” value is given as 77.6198%. For `CC(Sc1nc(N)cc(N)n1)C(=O)c1ccc(F)c(F)c1` (stereo not shown) [CBK296928], the “% of control remaining” value is 96.534%. For `Cc1csc2ncc(C(=O)Nc3ccc(OC(F)(F)F)cc3)c(=O)n12` [CBK287457] the value was 106.514%. In the case of `CCCC(=O)Nc1c(C)nn(C)c1N1CCNCC1` [CBK045924T], the “% of control remaining” value was 112.821%. Regarding `O=C(c1ccc(F)cc1)C1CCN(Cc2ncc[nH]2)CC1` [CBK149135], the “% of control remaining” value worked out at 117.386%. Regarding `CC(C)[C@@H](CO)n1c(=O)[nH]c2ncc(-c3cccc4cccnc34)nc21` [CBK064848], the “% of control remaining” value was 142.503%. As to `Cc1cc(=O)c2ccccc2n1CC(=O)N1CCC2(CCOCC2)CC1` [CBK306869], the “% of control remaining” value came to 103.345%. Next, `Cc1cc(C(=O)NCCc2ccc(S(=O)(=O)NC(=O)NC3CCCCC3)cc2)n[nH]1` [CBK023997]: 141.81%; `O=C(Nc1ccc(OC(F)(F)F)cc1)c1cnc(-c2ccc(Cl)cc2)c(-c2ccc(O)cc2)c1` [CBK037485]: 138.167%; `COCCOc1nccnc1N1CCNCC1` [CBK001903G]: 124.066%. Next, `Cc1nccn1CCN(C)C(=O)c1ccc2c(c1)ncn2C` [CBK281993]: 100.535%; `NS(=O)(=O)c1ccc(NC(=O)C2CCCN(S(=O)(=O)c3ccc(Cl)cc3)C2)cc1` (stereo not shown) [CBK266813]: 151.785%; `O=C(Cc1csc(-c2ccc(Cl)cc2)n1)Nc1ccccn1` [CBK107364]: 128.017%. `CC(=O)Nc1ccc(Nc2cc(C)nc(-n3nc(C)cc3C)n2)cc1` [CBK287746]: the “% of control remaining” value is reported as 75.4017%. Take `Cc1ccc(S(=O)(=O)Nc2ccc(Nc3cc(-c4ccc(CNC(=O)OC(C)(C)C)cc4)ncn3)cc2)cc1` [CBK090967]: the “% of control remaining” value worked out at 178.916%.

As for `COc1ccc(NC(=O)Nc2nn(Cc3ccc(Cl)cc3Cl)cc2Br)cc1OC` [CBK266930], the “% of control remaining” value is 140.308%.

Take `O=C(c1ccccc1)N1C[C@@H](c2ccsc2)[C@@H]2CN(Cc3cccc(Cl)c3)CC[C@@H]21` [CBK285603]: the “% of control remaining” value turned out to be 94.9125%. Next, `COc1cccc2cc(C(=O)N3CCN(CCO)CC3)c(=O)oc12` [CBK293932]: 176.594%; `CN1CCN(C(=O)CN(Cc2ccccc2)S(C)(=O)=O)CC1` [CBK265745]: 99.4835%. For `CCc1c(C)nc2c(C(=O)N3CCOCC3)cnn2c1C` [CBK162134] the value was 99.9437%; for `CC1(C)[C@H]2CC[C@]1(C)[C@@H](OCCNc1ccccc1)C2` [CBK021967], 116.044%; for `Nn1c(COc2ccccc2)nnc1SCC(=O)c1ccc2c(c1)CCCC2` [CBK268466], 85.3109%.

On to `Nc1nc2c(ccn2[C@@H]2O[C@H](CO)[C@H](O)C2O)c(=O)[nH]1` (stereo partly shown) [CBK201190], for which the “% of control remaining” value is reported as 146.553%. Turning to `O=[N+]([O-])c1ccc(N2CCN(S(=O)(=O)c3ccc4ccccc4c3)CC2)cc1NCc1ccco1` [CBK264417], the “% of control remaining” value was determined as 123.54%. Next, `Cc1cc(C)nc(N2CCC(CC(=O)N3CCCCC3CN3CCCC3)CC2)n1` (stereo not shown) [CBK286254]: 137.811%; `COc1ccc(S(=O)(=O)N2CCCCC2)cc1NC(=O)c1ccc(-c2nnn[nH]2)cc1` [CBK297128]: 154.844%. Next, `Cc1cc(OC(F)(F)F)ccc1NS(=O)(=O)c1ccc(-c2ccon2)s1` [CBK062361]: 129.72%; `CC[C@H]1CN(C(=O)Nc2cccc(OC)c2)CC[C@H]1CC(=O)O` [CBK288778]: 131.384%; `O=C(O)C(c1c[nH]c2ccc(OCc3ccccc3)cc12)N1CCCC1` (stereo not shown) [CBK286686]: 133.849%. Turning to `Cc1c(C(=O)N2CCCC(c3nc(C)n4ccsc34)C2)cnn1C` (stereo not shown) [CBK284593], the “% of control remaining” value was found to be 138.152%. As for `CC(C)(C)c1ccc(-c2cnc3nc(N)ccc3c2)cc1` [CBK061888], the “% of control remaining” value is recorded as 104.483%. Next, `Cc1nn(C)c2ncc(S(=O)(=O)NC(C)c3ccc(F)cc3)cc12` (stereo not shown) [CBK305793]: 113.415%; `CC(CC(=O)O)CC(=O)Nc1cccc(C(=O)O)c1` (stereo not shown) [CBK265651]: 103.791%; `CCOc1cc(C)c(Cl)cc1S(=O)(=O)NCc1ccncc1` [CBK269954]: 115.658%. Next, `CCc1ccc(N(CC(=O)NCc2ccccn2)S(C)(=O)=O)cc1` [CBK265322]: 100%; `Cc1cnn(C)c1CN1CCNC(=O)C1c1ccccc1C(F)(F)F` (stereo not shown) [CBK304260]: 130.126%; `c1coc(-c2cn3ccnc3c(Nc3ccc4[nH]ccc4c3)n2)c1` [CBK037361]: 173.83%. Next, `Cc1cc(-c2ccc(=O)n(C3CCN(C(=O)C4CC4)CC3)n2)c(C)o1` [CBK284462]: 134.061%; `CC1CCN(Cc2ccc(-c3nnn(CC(=O)NCc4ccc(Cl)cc4Cl)n3)cc2)CC1` [CBK144180C]: 100.711%; `O=C(Nc1ccc2n(c1=O)C[C@H]1C[C@@H]2CN(C(=O)NC2CCCCC2)C1)c1cnccn1` [CBK289076]: 111.696%. `CCCc1c(C)nc2c(OC)cccc2c1SCCC(=O)O` [CBK263890]: the “% of control remaining” value stood at 86.2645%. Next, `N#Cc1ccc(COc2ccccc2)cc1` [CBK002738]: 121.293%; `O=S(=O)(c1ccc(Cl)cc1)N1CCN(c2ccccc2)CC1` [CBK067987]: 117.338%; `CCNC(=S)/N=C(\NCc1cccnc1)Nc1nc(C)cc(C)n1` [CBK267212]: 89.1603%. Turning to `N#Cc1ccc(C2NC(=O)c3ccccc3O2)cc1` (stereo not shown) [CBK288180], the “% of control remaining” value stood at 118.125%.

With `Cn1c2ccccc2n2c(SCc3nc4ccc([N+](=O)[O-])cc4[nH]3)nnc12` [CBK266853], the “% of control remaining” value was 158.409%.

For the molecule `CC(C)(C)C(=O)CN1CCC2(CC1)OCCc1c2[nH]c2ccc(F)cc12` [CBK040237], the “% of control remaining” value was found to be 112.752%. `Cc1cc2c(cc1C)C(O)CC1(CCN(C(=O)c3ccco3)CC1)O2` (stereo not shown) [CBK282839]: the “% of control remaining” value is listed as 126.375%.
